Results published in paper PMC10443802 (JCI Insight, 2023).

Tested on: OATP1B2
Test: Untargeted metabolomics of plasma and DRG, WT vs OATP1B2-deficient mice
Format: in vivo, mouse
[1] = supplement sheet "Figure 5B" (volcano plot)
[2] = Figure 5B source data (volcano plot), log2 fold change of metabolite level

| Substance | Log2FoldChange [1] | Log2FoldChange (sheet "Figure 5C") | other results |
| --- | --- | --- | --- |
| 2-hydroxystearate |  |  | Log2FoldChange (supplement sheet "Figure 5B"): 0.01436 |
| 4-ethylcatechol sulfate | 0.9486 |  |  |
| 13-HODE + 9-HODE | 0.251 |  |  |
| (N(1) + N(8))-acetylspermidine |  | 0.189 |  |
| S-carboxymethyl-L-cysteine |  |  | Log2FoldChange (supplement sheet "Figure 5B"): 0.2141 |
| S-methylcysteine |  | -0.1681 | Log2FoldChange [2]: -0.4941 |
| S-methylcysteine sulfoxide |  |  | Log2FoldChange [2]: -0.3401 |
| benzoate |  | 0.2141 |  |
| dihomo-linolenate (20:3n3 or n6) |  | 0.251 |  |
| dimethylarginine (SDMA + ADMA) |  | 0.189 |  |
| enterolactone sulfate | 1.774 |  |  |
| equol sulfate | 1.367 |  |  |
| fumarate | 0.2141 | -0.152 |  |
| gentisate |  |  | Log2FoldChange [2]: -0.304 |
| gluconate |  | 0.3334 |  |
| hippurate | 0.4751 | 0.6229 |  |
| lactate |  | -0.2345 | Log2FoldChange (supplement sheet "Figure 5B"): 0.1763 |
| linolenate [alpha or gamma; (18:3n3 or 6)] |  |  | Log2FoldChange (supplement sheet "Figure 5B"): -0.1203 |
| maleate | 0.3674 |  |  |
| maltotetraose | 0.2869 |  |  |
| oleoyl-arachidonoyl-glycerol (18:1/20:4) [2]* | 0.3334 | -0.4344 |  |
| sphingomyelin (d17:1/14:0, d16:1/15:0)* | 0.4005 |  |  |
| sphingomyelin (d18:1/20:0, d16:1/22:0)* |  | -0.4941 | Log2FoldChange [2]: -0.1681 |
| tartarate |  |  | Log2FoldChange [2]: -0.3959 |
| taurocholenate sulfate* | 0.3674 |  |  |
| tetradecadienedioate (C14:2-DC)* | 1.0635 |  |  |
